Results as given in paper PMC12007717.
Results are given in words; binding and its absence hold for the method and conditions named. In cells and extracts the contact can be indirect. Some results given as binding are weak or reduced against the parent protein; the word gives no strength. For part of these data: Sequences can lack the tags named with a protein.

Protein sequences, listed by entry. Tags and fused reporters are not part of them. Lines headed by an entry give the natural chain unless they say otherwise; changes in a name come on top.
UniProt Q04477: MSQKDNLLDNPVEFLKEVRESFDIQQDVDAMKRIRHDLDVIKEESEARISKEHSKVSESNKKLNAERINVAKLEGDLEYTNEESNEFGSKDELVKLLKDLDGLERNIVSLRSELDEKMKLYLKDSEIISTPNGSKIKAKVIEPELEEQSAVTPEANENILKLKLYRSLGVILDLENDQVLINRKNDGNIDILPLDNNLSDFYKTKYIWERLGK
UniProt P40460: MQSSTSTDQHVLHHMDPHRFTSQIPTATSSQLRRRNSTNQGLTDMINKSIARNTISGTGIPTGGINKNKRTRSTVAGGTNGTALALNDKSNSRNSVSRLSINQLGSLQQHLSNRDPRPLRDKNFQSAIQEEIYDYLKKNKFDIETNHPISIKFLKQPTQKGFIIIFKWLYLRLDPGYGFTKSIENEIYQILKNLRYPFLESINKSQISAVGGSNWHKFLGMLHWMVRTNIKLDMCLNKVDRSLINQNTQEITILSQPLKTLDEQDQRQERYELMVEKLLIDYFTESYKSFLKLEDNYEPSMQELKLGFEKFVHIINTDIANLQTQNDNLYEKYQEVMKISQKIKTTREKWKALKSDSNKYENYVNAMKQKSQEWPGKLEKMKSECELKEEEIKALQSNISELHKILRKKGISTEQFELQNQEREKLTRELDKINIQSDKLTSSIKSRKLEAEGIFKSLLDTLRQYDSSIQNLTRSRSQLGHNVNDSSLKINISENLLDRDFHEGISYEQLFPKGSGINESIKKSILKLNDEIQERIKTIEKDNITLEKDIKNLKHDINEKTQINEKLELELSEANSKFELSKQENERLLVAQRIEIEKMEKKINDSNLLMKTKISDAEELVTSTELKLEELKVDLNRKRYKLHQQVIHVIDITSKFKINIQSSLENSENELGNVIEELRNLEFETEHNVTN

Experiments:
[1] = molecular target: Spc24-6His-3FLAG (S. cerevisiae) (UniProt Q04477); assay: co-IP; one-step anti-Flag immunoprecipitation of Spc24-His-Flag from yeast lysate, Buffer H with 250 mM KCl throughout (Figs 5A and 5B), 4 °C, 3 hours; immunoblot; cells arrested in metaphase (cdc20-AID) or anaphase (cdc15-2) at 37 °C
[2] = molecular target: T1, Dsn1-6His-3FLAG (S. cerevisiae) (UniProt P40568); assay: co-IP; one-step anti-Flag (M3DK antibody on Protein G Dynabeads) immunoprecipitation of the 3Flag-tagged bait from yeast lysate, Buffer H with 150 mM KCl, 4 °C, 3 hours; co-purifying proteins by immunoblot; cells asynchronous or arrested (cdc20-AID, cdc15-2, ndc10-1, nocodazole, kar3-AID)
T1 sequence: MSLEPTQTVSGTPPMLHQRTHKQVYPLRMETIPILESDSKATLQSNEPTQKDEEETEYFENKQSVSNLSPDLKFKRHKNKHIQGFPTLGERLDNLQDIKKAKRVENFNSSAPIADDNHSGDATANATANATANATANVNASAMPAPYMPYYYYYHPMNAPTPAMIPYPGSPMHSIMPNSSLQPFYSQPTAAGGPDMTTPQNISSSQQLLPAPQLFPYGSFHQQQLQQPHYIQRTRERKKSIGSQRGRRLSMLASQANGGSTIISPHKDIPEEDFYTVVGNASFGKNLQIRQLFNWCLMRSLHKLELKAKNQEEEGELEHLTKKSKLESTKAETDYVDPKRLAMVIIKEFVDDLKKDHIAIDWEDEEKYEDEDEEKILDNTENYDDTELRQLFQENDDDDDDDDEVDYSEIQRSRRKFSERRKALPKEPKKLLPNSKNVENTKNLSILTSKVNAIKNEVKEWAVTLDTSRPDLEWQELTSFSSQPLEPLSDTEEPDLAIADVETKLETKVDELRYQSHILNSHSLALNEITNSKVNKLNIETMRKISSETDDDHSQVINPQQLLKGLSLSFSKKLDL

[3] = molecular target: Spc24-6His-3FLAG (S. cerevisiae) (UniProt Q04477); assay: as above
[4] = molecular target: Ndc80-3FLAG (S. cerevisiae) (UniProt P40460); assay: as above
[5] = molecular target: Ndc80 (wild type) (S. cerevisiae) (UniProt P40460); assay: co-IP; one-step anti-Flag immunoprecipitation of Spc24-His-Flag from yeast lysate, Buffer H with 250 mM KCl throughout (Figs 5A and 5B), 4 °C, 3 hours; immunoblot; cells arrested in metaphase (cdc20-AID) or anaphase (cdc15-2) at 37 °C
[6] = molecular target: Ndc80-T248A-T252A (S. cerevisiae) (UniProt P40460); assay: as above
[7] = molecular target: Ndc80-T248D-T252D (S. cerevisiae) (UniProt P40460); assay: as above
[8] = molecular target: Spc24-6His-3FLAG (S. cerevisiae) (UniProt Q04477); assay: as above; remark: listed apart in the source
[9] = molecular target: Ndc80 (wild type) (S. cerevisiae) (UniProt P40460); assay: co-IP; one-step anti-Flag (M3DK antibody on Protein G Dynabeads) immunoprecipitation of the 3Flag-tagged bait from yeast lysate, Buffer H with 150 mM KCl, 4 °C, 3 hours; co-purifying proteins by immunoblot; cells asynchronous or arrested (cdc20-AID, cdc15-2, ndc10-1, nocodazole, kar3-AID)
[10] = molecular target: Ndc80-T248D-T252D (S. cerevisiae) (UniProt P40460); assay: as above
[11] = molecular target: Spc24-6His-3FLAG (S. cerevisiae) (UniProt Q04477); assay: as above; remark: listed apart in the source

Measured: binding

Ndc80 (wild type) (from UniProt P40460 1-691)
binds: [1] | [2] | [3]

Ndc80-T248A-T252A (from UniProt P40460 1-691)
binds: [1] | [3]

Ndc80-T248D-T252D (from UniProt P40460 1-691)
binds: [1] | [3]

Spc24 (from UniProt Q04477 1-213)
binds: [4]

B1: Ask1 (protein, UniProt P35734 1-292)
chain: MDSASKEETLEKLDQEITVNLQKIDSNLSFCFHKITQDIIPHVATYSEICERIMDSTEWLGTMFQETGLVNLQANAAAPVGNAPVKSLVSNNVGIFPTSAEEASRQSQTDNGPNEADSAVHVNRDVHSMFNNDSIDDFHTANITSTGQILKLPDSSDEDTGSEAVPSREQTDLTGEGHGGADDEQDESTIQRQSRKRKISLLLQQQYGSSSSMVPSPIVPNKMRKQLAHEEHINNDGDNDDENSNNIESSPLKQGHHHPKGQADDNNEGPDEEESTKEVPKPGTIIHFSTNR
not listed: [1] | [2] | [3] | [4]
binds: all other assays above
